Measurements taken from article doi:10.1101/2020.08.04.235721.
These are yes or no findings as the source states them, for the method shown. Binding seen in cells or lysates may run through a third protein. Here binding means that the protein was enriched with, or labelled near, the bait; the list need not be complete.

Biological target: T1, human Trx1C35S (human) (UniProt P10599)
T1 sequence: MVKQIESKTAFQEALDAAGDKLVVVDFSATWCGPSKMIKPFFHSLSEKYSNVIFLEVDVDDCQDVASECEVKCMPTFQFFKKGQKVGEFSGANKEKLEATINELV
Assay: pull-down + affinity purification with mass spectrometry

binding: binds
B1: iron regulatory protein 1 (IRP1), endogenous in HeLa cells (protein, UniProt P21399 1-889)
chain: MSNPFAHLAEPLDPVQPGKKFFNLNKLEDSRYGRLPFSIRVLLEAAIRNCDEFLVKKQDIENILHWNVTQHKNIEVPFKPARVILQDFTGVPAVVDFAAMRDAVKKLGGDPEKINPVCPADLVIDHSIQVDFNRRADSLQKNQDLEFERNRERFEFLKWGSQAFHNMRIIPPGSGIIHQVNLEYLARVVFDQDGYYYPDSLVGTDSHTTMIDGLGILGWGVGGIEAEAVMLGQPISMVLPQVIGYRLMGKPHPLVTSTDIVLTITKHLRQVGVVGKFVEFFGPGVAQLSIADRATIANMCPEYGATAAFFPVDEVSITYLVQTGRDEEKLKYIKKYLQAVGMFRDFNDPSQDPDFTQVVELDLKTVVPCCSGPKRPQDKVAVSDMKKDFESCLGAKQGFKGFQVAPEHHNDHKTFIYDNTEFTLAHGSVVIAAITSCTNTSNPSVMLGAGLLAKKAVDAGLNVMPYIKTSLSPGSGVVTYYLQESGVMPYLSQLGFDVVGYGCMTCIGNSGPLPEPVVEAITQGDLVAVGVLSGNRNFEGRVHPNTRANYLASPPLVIAYAIAGTIRIDFEKEPLGVNAKGQQVFLKDIWPTRDEIQAVERQYVIPGMFKEVYQKIETVNESWNALATPSDKLFFWNSKSTYIKSPPFFENLTLDLQPPKSIVDAYVLLNLGDSVTTDHISPAGNIARNSPAARYLTNRGLTPREFNSYGSRRGNDAVMARGTFANIRLLNRFLNKQAPQTIHLPSGEILDVFDAAERYQQAGLPLIVLAGKEYGAGSSRDWAAKGPFLLGIKAVLAESYERIHRSNLVGMGVIPLEYLPGENADALGLTGQERYTIIIPENLKPQMKVQVKLDTGKTFQAVMRFDTDVELTYFLNGGILNYMIRKMAK
